# Test results from US20220175955A1 (Torque Therapeutics Inc., priority 2018, published 2022).
# Assays:
# [1] = general procedure: Fmoc solid-phase peptide synthesis; preloaded Fmoc-amino acid-Wang resin; conditions: whole synthesis, trifluoroacetic acid salt
# [2] = general procedure: Fmoc solid-phase peptide synthesis; Fmoc-Leu-Wang; conditions: whole synthesis, TFA salt
# [3] = general procedure: Fmoc solid-phase peptide synthesis; Fmoc-Arg(Pbf)-Wang; conditions: whole synthesis, scale 0.5 mmol, TFA salt
# [4] = general procedure: Fmoc solid-phase peptide synthesis; Fmoc-Val-Wang; conditions: whole synthesis, scale 0.22 mmol, TFA salt
# [5] = general procedure: Fmoc solid-phase peptide synthesis; Fmoc-Thr(tBu)-Wang; conditions: whole synthesis, scale 0.5 mmol, TFA salt
Substance,final HPLC purity [1],isolated yield [1],isolated mass ([2]; scale 0.5 mmol),isolated mass ([2]; scale 0.25 mmol),isolated mass [3],isolated mass [4],isolated mass ([2]; scale 0.21 mmol),isolated mass [5]
CSIINFEKL,>95%,88%,470 mg,–,–,–,–,–
C(Npys)SIIVFEKL,>94%,88%,–,256.0 mg,–,–,–,–
CSIITFEKL,>95%,27%,142.2 mg,–,–,–,–,–
CKGPRNQDWL,>95%,65%,392.8 mg,–,–,–,–,–
CISQAVHAAHAEINEAGR,>95%,33%,–,–,305 mg,–,–,–
CLGGLLTMV,>99%,50%,–,–,–,99.4 mg,–,–
CKVPRNQDWL,>95%,56%,349.5 mg,–,–,–,–,–
CVLDGLDVLL,>92%,11%,–,–,–,–,23.4 mg,–
CYMLDLQPETT,>99%,18%,–,–,–,–,–,121.4 mg

# Plain letter strings leave the end groups untold.
